Measurements published in PubChem BioAssay AID330 (DTP/NCI, 2004).
The list shows only some results of the screen, not a fair sample: it gathers tests that were run many times, whatever their T/C, doses with no T/C, and many T/C values between a quarter and a half above the control. Other doses and runs of a compound stand elsewhere. T/C: endpoint of the treated group in % of that of the vehicle group. Some entries give survivors of the animals treated and no T/C: the source files T/C as zero there, which appears to mark a toxic dose or a test without result, not a measured value. Some doses without a T/C left all or most animals alive at the check, yet need not have been tolerated: the source hardly ever lists a survival T/C far under the control, and the zero likely stands for such cases as well. Survivors were counted at the toxicity check, usually on the fifth day, unless a day is given; later deaths do not show. Schedule codes are those of the source, read here as Q, the interval in days (D) or hours (H), X, the number of doses. Some entries hold several experiments; their values stand side by side, smallest first. Additions like (4×) count equal records among those shown. Some structures stand for samples that the source files as different forms (salt, stereo form or complex); doses refer to the form tested. For survival time, this PubChem deposit counts one and a half times the control or more as active, and values a quarter to a half above the control carry no call in these data; other NCI protocols may use other cut-offs. Some T/C values carry the count of animals alive at the toxicity check (mostly the fifth day); without a count, all were alive then.

System: P388 leukemia ip, CD2F1 mice, survival T/C
Assay: NCI In Vivo Anticancer Drug Screen. Data for tumor model P388 Leukemia (intraperitoneal) in CD2F1 (CDF1) mice
Details: T/C endpoint: median survival time, higher T/C = longer survival
[1] = dose: 200.0 mg/kg/injection, schedule: Q01DX005 (ip), vehicle: Klucel (hydroxypropylcellulose) (HPC)
[2] = dose: 200.0 mg/kg/injection, schedule: Q01DX005 (ip), vehicle: saline
[3] = dose: 200.0 mg/kg/injection, schedule: Q01DX009 (ip), vehicle: saline with Tween-80
[4] = dose: 100.0 mg/kg/injection, schedule: Q01DX005 (ip), vehicle: saline
[5] = dose: 50.0 mg/kg/injection, schedule: Q01DX005 (ip), vehicle: saline with Tween-80
[6] = dose: 200.0 mg/kg/injection, schedule: Q01DX005 (ip), vehicle: saline with Tween-80
[7] = dose: 400.0 mg/kg/injection, schedule: Q01DX005 (ip), vehicle: saline with Tween-80
[8] = dose: 50.0 mg/kg/injection, schedule: Q01DX005 (ip), vehicle: saline

In the case of `OCCN1CCN(CCCN2c3cc(Cl)ccc3Sc3sccc32)CC1`, the survivor count [1] was 1 of 6 and the survivor count [2] was 1 of 6.

For `CCCCCOC(=O)c1ccccc1OP(=O)(N(C)C)N(C)C`, the survivor count [2] was 0 of 6.

In the case of `C1CCNCC1.COc1ccccc1C(=O)[CH-]C(=O)C(F)(F)F.COc1ccccc1C(=O)[CH-]C(=O)C(F)(F)F.COc1ccccc1C(=O)[CH-]C(=O)C(F)(F)F.COc1ccccc1C(=O)[CH-]C(=O)C(F)(F)F.[Eu+3]`, the survivor count (dose: 100.0 mg/kg/injection, schedule: Q01DX009 (ip), vehicle: Klucel (hydroxypropylcellulose) (HPC)) was 6 of 6.

With `N#Cc1ccc(=O)[nH]c1O` the survivor count [3] was 6 of 6.

For `CCN(CC)CCOc1ccc(/C=C(\C)C(C)=O)cc1`, the survivor count [2] was 0 of 5.

In the case of `Cc1ccc(SSCCN)cc1`, the survivor count [4] was 3 of 5 and the survivor count [2] was 0 of 5.

For `CN(C)CCOc1cccc(NC2=C(Cl)C(=O)C(Nc3cccc(OCCN(C)C)c3)=C(Cl)C2=O)c1`, the survivor count (dose: 12.5 mg/kg/injection, schedule: Q01DX005 (ip), vehicle: Klucel (hydroxypropylcellulose) (HPC)) was 3 of 6 and 4 of 6 (2×), the survivor count (dose: 25.0 mg/kg/injection, schedule: Q01DX005 (ip), vehicle: Klucel (hydroxypropylcellulose) (HPC)) was 1 of 6 and the survivor count (dose: 50.0 mg/kg/injection, schedule: Q01DX005 (ip), vehicle: Klucel (hydroxypropylcellulose) (HPC)) was 0 of 5. For the same molecule, the survivor count (dose: 100.0 mg/kg/injection, schedule: Q01DX005 (ip), vehicle: Klucel (hydroxypropylcellulose) (HPC)) was 0 of 5 and the survivor count [1] was 0 of 5.

In the case of `C1CC(CCC2CCNCC2)CCN1`, the survivor count (dose: 100.0 mg/kg/injection, schedule: Q01DX009 (ip), vehicle: saline) was 3 of 6 and the survivor count (dose: 200.0 mg/kg/injection, schedule: Q01DX009 (ip), vehicle: saline) was 0 of 6.

In the case of `N=C(N)c1ccc(/C=C/c2ccc(C(=N)N)cc2O)cc1`, the T/C (dose: 33.0 mg/kg/injection, schedule: Q01DX009 (ip), vehicle: water) was 129 % of control, the T/C (dose: 50.0 mg/kg/injection, schedule: Q01DX009 (ip), vehicle: water) was 130 [4 of 6 alive] and 137 % of control and the T/C (dose: 75.0 mg/kg/injection, schedule: Q01DX009 (ip), vehicle: water) was 132 % of control. The survivor count (dose: 100.0 mg/kg/injection, schedule: Q01DX009 (ip), vehicle: water) was 3 of 6 and the survivor count (dose: 200.0 mg/kg/injection, schedule: Q01DX009 (ip), vehicle: water) was 0 of 6.

`Cc1ccc2ccc(N(C)C)cc2n1` was tested, and the survivor count [3] was 3 of 6.

For `CCN(C(=S)Nc1cccc(C(F)(F)F)c1)c1ccccc1`, the survivor count (dose: 200.0 mg/kg/injection, schedule: Q01DX009 (ip), vehicle: Klucel (hydroxypropylcellulose) (HPC)) was 2 of 6.

With `C/C(=N\NC(=S)N1CCN(c2ccccc2)CC1)c1nccs1` the T/C (dose: 12.5 mg/kg/injection, schedule: Q01DX005 (ip), vehicle: saline with Tween-80) was 130 % of control, the survivor count (dose: 25.0 mg/kg/injection, schedule: Q01DX005 (ip), vehicle: saline with Tween-80) was 6 of 6 and the T/C [5] was 136 % of control. The survivor count [5] was 2 of 6, the survivor count (dose: 100.0 mg/kg/injection, schedule: Q01DX005 (ip), vehicle: saline with Tween-80) was 0 of 6 and 3 of 6 and the survivor count [6] was 1 of 6.

With `CSc1nc(Cl)c(Br)c(Sc2nc(N)nc3nc[nH]c23)n1` the T/C (dose: 132.0 mg/kg/injection, schedule: Q04DX003 (ip), vehicle: saline with Tween-80) was 145 % of control, the survivor count [3] was 6 of 6 and the T/C (dose: 200.0 mg/kg/injection, schedule: Q04DX003 (ip), vehicle: saline with Tween-80) was 140 % of control. The T/C (dose: 300.0 mg/kg/injection, schedule: Q04DX003 (ip), vehicle: saline with Tween-80) was 135 % of control and the survivor count (dose: 400.0 mg/kg/injection, schedule: Q04DX003 (ip), vehicle: saline with Tween-80) was 6 of 6.

With `COc1ccc(OC)c(Cc2cnc3nc(N)nc(N)c3c2C)c1` the T/C (dose: 20.0 mg/kg/injection, schedule: Q01DX005 (ip), vehicle: dextrose) was 147 % of control [5 of 6 alive], the T/C (dose: 20.0 mg/kg/injection, schedule: Q01DX005 (ip), vehicle: water) was 125 % of control and the T/C (dose: 40.0 mg/kg/injection, schedule: Q01DX005 (ip), vehicle: water) was 125 % of control. For the same molecule, the T/C (dose: 50.0 mg/kg/injection, schedule: Q04DX003 (ip), vehicle: dextrose) was 142 % of control, the survivor count (dose: 80.0 mg/kg/injection, schedule: Q01DX005 (ip), vehicle: dextrose) was 6 of 6 and the survivor count (dose: 80.0 mg/kg/injection, schedule: Q01DX005 (ip), vehicle: water) was 4 of 6. For the same molecule, the survivor count (dose: 160.0 mg/kg/injection, schedule: Q01DX005 (ip), vehicle: dextrose) was 1 of 6, the survivor count (dose: 160.0 mg/kg/injection, schedule: Q01DX005 (ip), vehicle: water) was 2 of 6 and the survivor count (dose: 200.0 mg/kg/injection, schedule: Q04DX003 (ip), vehicle: dextrose) was 6 of 6. The survivor count (dose: 400.0 mg/kg/injection, schedule: Q04DX003 (ip), vehicle: dextrose) was 0 of 6.

For `CC(N)P(=O)(O)O` (stereo unspecified), the survivor count (dose: 25.0 mg/kg/injection, schedule: Q01DX009 (ip), vehicle: saline) was 5 of 6 and the survivor count (dose: 50.0 mg/kg/injection, schedule: Q01DX009 (ip), vehicle: saline) was 6 of 6.

With `N#CCS(=O)(=O)c1cccc[n+]1[O-]` the T/C [6] was 132 % of control and the survivor count [7] was 3 of 6.

In the case of `O=C1CCC2(CC(Br)C(=O)c3ccccc32)C(=O)N1` (stereo unspecified), the survivor count (dose: 240.0 mg/kg/injection, schedule: Q01DX005 (ip), vehicle: Klucel (hydroxypropylcellulose) (HPC)) was 2 of 6.

In the case of `COc1cccc2c1C(=O)c1c(O)c3c(c(O)c1C2=O)C[C@@](O)(C(=O)CO)C[C@@H]3OC1CC(N2CCCCC2)C(O)C(C)O1` (stereo partly specified), the T/C (dose: 0.39 mg/kg/injection, schedule: Q01DX009 (ip), vehicle: water) was 137 % of control, the T/C (dose: 1.56 mg/kg/injection, schedule: Q01DX009 (ip), vehicle: water) was 147 % of control and the survivor count (dose: 3.13 mg/kg/injection, schedule: Q01DX009 (ip), vehicle: water) was 6 of 6. The survivor count (dose: 6.25 mg/kg/injection, schedule: Q01DX009 (ip), vehicle: water) was 4 of 6 and 6 of 6, the survivor count (dose: 12.5 mg/kg/injection, schedule: Q01DX009 (ip), vehicle: water) was 0 of 6 and 3 of 6 and the T/C (dose: 18.8 mg/kg/injection, schedule: Q04DX003 (ip), vehicle: water) was 148 % of control. The survivor count (dose: 25.0 mg/kg/injection, schedule: Q01DX009 (ip), vehicle: water) was 0 of 6 and 1 of 6.

`Cc1ccccc1C[n+]1ccccc1Br` was tested, and the survivor count [8] was 5 of 5, the survivor count [4] was 0 of 5 and the survivor count [2] was 0 of 5.

In the case of `CCCCN(CCCC)C(=N)c1cc(OC)ccc1OC`, the survivor count (dose: 12.5 mg/kg/injection, schedule: Q01DX005 (ip), vehicle: saline) was 2 of 5, the survivor count [8] was 0 of 5 and the survivor count [4] was 0 of 5. For the same molecule, the survivor count [2] was 0 of 5.

`COc1cc2cc(c1Cl)N(C)C(=O)CC(OC(=O)C(C)N(C)C(=O)C(C)C)C1(C)OC1C(C)C1CC(O)(NC(=O)O1)C(OC)/C=C/C=C(C)C2O` (stereo unspecified) was tested, and the T/C (dose: 4.0 micrograms/kg/injection, schedule: Q01DX009 (ip), vehicle: distilled water + alcohol) was 126 % of control, the T/C (dose: 8.0 micrograms/kg/injection, schedule: Q01DX009 (ip), vehicle: distilled water + alcohol) was 134 % of control and the T/C (dose: 16.0 micrograms/kg/injection, schedule: Q01DX009 (ip), vehicle: distilled water + alcohol) was 144 % of control.

With `CCCCCCCCCCCCCCCC[N+](C)(C)CCBr` the survivor count (dose: 12.5 mg/kg/injection, schedule: Q01DX009 (ip), vehicle: saline with Tween-80) was 5 of 6, the survivor count (dose: 25.0 mg/kg/injection, schedule: Q01DX009 (ip), vehicle: saline with Tween-80) was 0 of 6, 2 of 6, 3 of 6 and the survivor count (dose: 50.0 mg/kg/injection, schedule: Q01DX009 (ip), vehicle: saline with Tween-80) was 0 of 6 (2×).

For `O=C1OC(=O)c2cc([N+](=O)[O-])cc3cccc1c23`, the survivor count [7] was 3 of 6.

In the case of `C1=CCC(C(Nc2nncs2)Nc2nncs2)CC1` (stereo unspecified), the T/C (dose: 120.0 mg/kg/injection, schedule: Q01DX005 (ip), vehicle: saline with Tween-80) was 125 % of control.

For `O=C1c2ccccc2C(=O)c2c1cc1c(c2[N+](=O)[O-])OCO1`, the T/C (dose: 240.0 mg/kg/injection, schedule: Q01DX005 (ip), vehicle: saline with Tween-80) was 147 % of control.
